# In the supplement of paper PMC8728848:
# The other results are listed elsewhere or left out.
# B1: BabA (Helicobacter pylori), O52269_HELPY (protein)
# chain: AEDDGFYMSAGYQIGEAAQMVKNTKGIQELSDNYENLSNLLTRYSTLNTLIKLSADPSAVNAARENLGASAKNLIGDTKNSPAYQAVLLAINAAVGFWNVVGYVTQCGGNANGQKSTSSTTIFNNEPGYRSTSITCSLNGHMPGYYGPMSIENFKKLNEAYQILQTALKNGLPALKENNGTVNVTYSYTCSGEGNDNCSLQTTGVTNQNNGTKTETQTIDGKSVTTTISSKVVDSQ
# Experiments:
# Assay in all cases: glycan array binding signal (z-score within array); higher = stronger binding
# Details in all cases: glycan notation: IUPAC condensed, linker removed
# [1] = biological target: GlcNAc(b1-3)Gal(b1-4)GlcNAc(b1-3)Gal(b1-4)GlcNAc(b1-3)Gal(b1-4)GlcNAc(b1-3)Gal(b1-4)GlcNAc(b1-2)Man(a1-3)[GlcNAc(b1-3)Gal(b1-4)GlcNAc(b1-3)Gal(b1-4)GlcNAc(b1-3)Gal(b1-4)GlcNAc(b1-3)Gal(b1-4)GlcNAc(b1-2)Man(a1-6)]Man(b1-4)GlcNAc(b1-4)GlcNAc
# Method in brief: (§1)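 The binding signal is a Z-score computed within each array. Data were drawn from 3228 arrays in the Consortium for Functional Glycomics database, restricted to those with a known protein sequence. Scores were averaged over arrays of the same protein sequence at different concentrations or buffers, and over linkers, and negative values can be taken as non-binding.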
# [2] = biological target: GlcNAc(b1-3)Gal(b1-4)GlcNAc(b1-3)Gal(b1-4)GlcNAc(b1-3)Gal(b1-4)GlcNAc(b1-3)Gal(b1-4)GlcNAc(b1-2)Man(a1-3)[GlcNAc(b1-3)Gal(b1-4)GlcNAc(b1-3)Gal(b1-4)GlcNAc(b1-3)Gal(b1-4)GlcNAc(b1-3)Gal(b1-4)GlcNAc(b1-2)Man(a1-6)]Man(b1-4)GlcNAc(b1-4)[Fuc(a1-6)]GlcNAc
# Method in brief: as §1
# [3] = biological target: GlcNAc(b1-3)Gal(b1-4)GlcNAc(b1-3)Gal(b1-4)GlcNAc(b1-3)Gal(b1-4)GlcNAc(b1-3)Gal(b1-4)GlcNAc(b1-2)[GlcNAc(b1-3)Gal(b1-4)GlcNAc(b1-3)Gal(b1-4)GlcNAc(b1-3)Gal(b1-4)GlcNAc(b1-3)Gal(b1-4)GlcNAc(b1-6)]Man(a1-6)[GlcNAc(b1-3)Gal(b1-4)GlcNAc(b1-3)Gal(b1-4)GlcNAc(b1-3)Gal(b1-4)GlcNAc(b1-3)Gal(b1-4)GlcNAc(b1-2)Man(a1-3)]Man(b1-4)GlcNAc(b1-4)[Fuc(a1-6)]GlcNAc
# Method in brief: as §1
# [4] = biological target: GlcNAc(b1-3)Gal(b1-4)GlcNAc(b1-3)Gal(b1-4)GlcNAc(b1-3)GalNAc
# Method in brief: as §1
# [5] = biological target: GlcNAc(b1-3)Gal(b1-4)GlcNAc(b1-3)GalNAc
# Method in brief: as §1
# [6] = biological target: GlcNAc(b1-3)Gal(b1-4)GlcNAc(b1-3)[GlcNAc(b1-3)Gal(b1-4)GlcNAc(b1-3)]GalNAc
# Method in brief: as §1
# [7] = biological target: GlcNAc(b1-3)Gal(b1-4)GlcNAc(b1-6)[Gal(b1-3)]GalNAc
# Method in brief: as §1
# [8] = biological target: GlcNAc(b1-3)Gal(b1-4)GlcNAc(b1-6)[GlcNAc(b1-3)Gal(b1-3)]GalNAc
# Method in brief: as §1
# [9] = biological target: GlcNAc(b1-3)Gal(b1-4)GlcNAc(b1-6)[GlcNAc(b1-3)]Gal(b1-4)GlcNAc
# Method in brief: as §1
# [10] = biological target: GlcNAc(b1-3)GalNAc
# Method in brief: as §1
# [11] = biological target: GlcNAc(b1-3)Man
# Method in brief: as §1
# [12] = biological target: GlcNAc(b1-3)[GlcNAc(b1-4)][GlcNAc(b1-6)]GlcNAc
# Method in brief: as §1
# [13] = biological target: GlcNAc(b1-3)[GlcNAc(b1-6)]Gal(b1-4)GlcNAc
# Method in brief: as §1
# [14] = biological target: GlcNAc(b1-3)[GlcNAc(b1-6)]GalNAc
# Method in brief: as §1
# [15] = biological target: GlcNAc(b1-4)Gal(b1-4)GlcNAc
# Method in brief: as §1
# [16] = biological target: GlcNAc(b1-4)GlcNAc
# Method in brief: as §1
# [17] = biological target: GlcNAc(b1-4)GlcNAc(b1-4)GlcNAc
# Method in brief: as §1
# [18] = biological target: GlcNAc(b1-4)GlcNAc(b1-4)GlcNAc(b1-4)GlcNAc(b1-4)GlcNAc
# Method in brief: as §1
# [19] = biological target: GlcNAc(b1-4)GlcNAc(b1-4)GlcNAc(b1-4)GlcNAc(b1-4)GlcNAc(b1-4)GlcNAc
# Method in brief: as §1
# [20] = biological target: GlcNAc(b1-4)[GlcNAc(b1-6)]GalNAc
# Method in brief: as §1
# [21] = biological target: GlcNAc(b1-6)Gal(b1-4)GlcNAc
# Method in brief: as §1
# [22] = biological target: GlcNAc(b1-6)GalNAc
# Method in brief: as §1
# [23] = biological target: GlcNAc3Prop(b1-4)GlcNAc
# Method in brief: as §1
# [24] = biological target: GlcNAc6S(b1-3)Gal(b1-4)GlcNAc
# Method in brief: as §1
# [25] = biological target: Kdn(a2-3)Gal(b1-3)GalNAc
# Method in brief: as §1
# [26] = biological target: Kdn(a2-3)Gal(b1-3)GlcNAc
# Method in brief: as §1
# [27] = biological target: Kdn(a2-3)Gal(b1-4)Glc
# Method in brief: as §1
# [28] = biological target: Kdn(a2-3)Gal(b1-4)GlcNAc
# Method in brief: as §1
# [29] = biological target: Kdn(a2-3)Gal(b1-4)[Fuc(a1-3)]GlcNAc
# Method in brief: as §1
# [30] = biological target: Kdn(a2-6)Gal(b1-4)GlcNAc
# Method in brief: as §1
# [31] = biological target: Man(a1-2)Man(a1-2)Man(a1-3)Man
# Method in brief: as §1
# [32] = biological target: Man(a1-2)Man(a1-2)Man(a1-6)[Man(a1-3)]Man
# Method in brief: as §1
# [33] = biological target: Man(a1-2)Man(a1-3)Man
# Method in brief: as §1
# [34] = biological target: Man(a1-2)Man(a1-3)[Man(a1-2)Man(a1-6)]Man
# Method in brief: as §1
# [35] = biological target: Man(a1-2)Man(a1-3)[Man(a1-2)Man(a1-6)]Man(a1-6)[Man(a1-2)Man(a1-2)Man(a1-3)]Man
# Method in brief: as §1
# [36] = biological target: Man(a1-2)Man(a1-3)[Man(a1-2)Man(a1-6)]Man(a1-6)[Man(a1-2)Man(a1-2)Man(a1-3)]Man(b1-4)GlcNAc(b1-4)GlcNAc
# Method in brief: as §1
# [37] = biological target: Man(a1-2)Man(a1-3)[Man(a1-6)]Man(a1-6)[Man(a1-2)Man(a1-3)]Man(b1-4)GlcNAc(b1-4)GlcNAc
# Method in brief: as §1
# [38] = biological target: Man(a1-2)Man(a1-6)[Man(a1-3)]Man(a1-6)[Man(a1-2)Man(a1-2)Man(a1-3)]Man
# Method in brief: as §1
# [39] = biological target: Man(a1-2)Man(a1-6)[Man(a1-3)]Man(a1-6)[Man(a1-2)Man(a1-2)Man(a1-3)]Man(b1-4)GlcNAc(b1-4)GlcNAc
# Method in brief: as §1
# [40] = biological target: Man(a1-3)[Man(a1-6)]Man
# Method in brief: as §1
# [41] = biological target: Man(a1-3)[Man(a1-6)]Man(a1-6)[Man(a1-2)Man(a1-3)]Man(b1-4)GlcNAc(b1-4)GlcNAc
# Method in brief: as §1
# [42] = biological target: Man(a1-3)[Man(a1-6)]Man(a1-6)[Man(a1-3)]Man
# Method in brief: as §1
# [43] = biological target: Man(a1-3)[Man(a1-6)]Man(a1-6)[Man(a1-3)]Man(b1-4)GlcNAc(b1-4)GlcNAc
# Method in brief: as §1
# [44] = biological target: Man(a1-3)[Man(a1-6)]Man(b1-4)GlcNAc(b1-4)GlcNAc
# Method in brief: as §1
# [45] = biological target: Man(a1-3)[Man(a1-6)]Man(b1-4)GlcNAc(b1-4)[Fuc(a1-6)]GlcNAc
# Method in brief: as §1
binder,measurement,setting,value
B1,glycan array binding signal (z-score),[1],2.06
same,glycan array binding signal (z-score),[2],0.98
same,glycan array binding signal (z-score),[3],1.15
same,glycan array binding signal (z-score),[4],-0.682
same,glycan array binding signal (z-score),[5],-0.219
same,glycan array binding signal (z-score),[6],-0.237
same,glycan array binding signal (z-score),[7],0.063
same,glycan array binding signal (z-score),[8],-0.491
same,glycan array binding signal (z-score),[9],-0.827
same,glycan array binding signal (z-score),[10],-0.487
same,glycan array binding signal (z-score),[11],0.325
same,glycan array binding signal (z-score),[12],0.049
same,glycan array binding signal (z-score),[13],-0.781
same,glycan array binding signal (z-score),[14],-0.746
same,glycan array binding signal (z-score),[15],-0.414
same,glycan array binding signal (z-score),[16],0.004
same,glycan array binding signal (z-score),[17],-0.831
same,glycan array binding signal (z-score),[18],-0.94
same,glycan array binding signal (z-score),[19],-0.956
same,glycan array binding signal (z-score),[20],-0.326
same,glycan array binding signal (z-score),[21],-0.079
same,glycan array binding signal (z-score),[22],-0.253
same,glycan array binding signal (z-score),[23],0.836
same,glycan array binding signal (z-score),[24],0.878
same,glycan array binding signal (z-score),[25],0.994
same,glycan array binding signal (z-score),[26],-0.206
same,glycan array binding signal (z-score),[27],0.097
same,glycan array binding signal (z-score),[28],-0.51
same,glycan array binding signal (z-score),[29],0.475
same,glycan array binding signal (z-score),[30],0.389
same,glycan array binding signal (z-score),[31],-0.881
same,glycan array binding signal (z-score),[32],-0.36
same,glycan array binding signal (z-score),[33],0.184
same,glycan array binding signal (z-score),[34],-0.328
same,glycan array binding signal (z-score),[35],-0.141
same,glycan array binding signal (z-score),[36],0.056
same,glycan array binding signal (z-score),[37],-0.265
same,glycan array binding signal (z-score),[38],-0.83
same,glycan array binding signal (z-score),[39],0.559
same,glycan array binding signal (z-score),[40],0.315
same,glycan array binding signal (z-score),[41],1.61
same,glycan array binding signal (z-score),[42],0.957
same,glycan array binding signal (z-score),[43],-0.703
same,glycan array binding signal (z-score),[44],0.357
same,glycan array binding signal (z-score),[45],-0.21

# Given with bars between the fields: entries from further up
binder | measurement | setting | value
B1 | glycan array binding signal (z-score) | [36] | 0.056
same | glycan array binding signal (z-score) | [37] | -0.265
same | glycan array binding signal (z-score) | [38] | -0.83
